The supplement of paper PMC5949888
Most values lie at the floor of the assay. Slopes are relative: functional sequences can read slightly below zero.

Test system: Saccharomyces cerevisiae PS128 hsf1 delta, HSF1(1-493) fusion
Test: growth estimate (transactivation domain function in HSF1 fusion, heat-shock survival) (a.u. (slope of normalised read count over time)); higher = stronger growth at 37°C, i.e. more transactivation activity
Conditions: library: random library

Substance	growth estimate
SMHAAGAKRKRRCVMVFHGH	< -0.25
SMMRRTV	< -0.25
SMPVSGG	< -0.25
SMRRHALHDPPFARTGPRDT	< -0.25
SMRSYGLTAHS	< -0.25
SMSQDPVQSTELRAYHTTRH	< -0.25
SMTIVSLRVANRPTTLICAT	< -0.25
SMVTKGRGAGNPNSLSEVQP	< -0.25
SMYASLR	< -0.25
SMYCRPTGVVVAGLRQDLLV	< -0.25
SMYLHA	< -0.25
SMYQLTETLHSTA	< -0.25
SNGVPILYSAF	< -0.25
SNHFNLGPYWPC	< -0.25
SNHKRSLPQ	< -0.25
SNISDEVPHPLAIHNDYATT	< -0.25
SNKLNVDCLKFSQATTQSGP	< -0.25
SNKWP	< -0.25
SNLGKLGFLAFRLNPPDVLT	< -0.25
SNLNGTTS	< -0.25
SNNILLGYGTLG	< -0.25
SNPARSGSQMSVVINNDDPA	< -0.25
SNPEIEGRPIWERYKHTGTQ	< -0.25
SNQWENGGLGAEP	< -0.25
SNRATGAACAAAASGGPRWA	< -0.25
SNRPDGRVFYKRRKAF	-0.248
SNRPLTWERLSCYVSGEKPG	-0.0941

Substance	growth estimate
SNRVWLRG	< -0.25
SNSFSYQDGSLNPGTLDSNG	< -0.25
SNSRTGLVVTSSS	< -0.25
SNSTLRGCRVNNACGIILAI	< -0.25
SNVDCSHDDEPRSKGFALKR	< -0.25
SNVGRRQQAILVELCPGFES	< -0.25
SNVGRVYGSALRMIPEVWQT	< -0.25
SNVPLFEISLPPRSLHGDRH	< -0.25
SNVREPSFR	< -0.25
SNVSNLTGRVSSIIGAVRRS	< -0.25
SNWSNHPNVRTMISGCECGL	< -0.25
SPAAFRPRRYG	< -0.25
SPAQVPTDPLGLVVSSVSLP	< -0.25
SPASENRISFLMIDRESPRQ	< -0.25
SPASRGRRKVGVRGRNRDAT	< -0.25
SPCAAL	< -0.25
SPCGGRSRCLPSASQNAMQG	< -0.25
SPDGVRVFFVSSRFV	< -0.25
SPDI	< -0.25
SPDPGGVPRRLASHYLVHAP	< -0.25
SPERASPRLVWALPHDGDWR	< -0.25
SPEVSQESNL	< -0.25
SPGTSNVSVVLPA	< -0.25
SPGTVPSGPQVAMTPDGQKQ	< -0.25
SPGVVGVRGGKICLLTRIPI	< -0.25
SPHLYA	< -0.25
SPHTPDRRS	< -0.25

Substance	growth estimate
SPICKLLLTATREQCTLSVE	< -0.25
SPIMQQGS	< -0.25
SPITRGPPIVDLAP	< -0.25
SPK	< -0.25
SPKF	< -0.25
SPKLGRIRAGLVQLSLIVGA	< -0.25
SPLAVISEALATSRGHYYAH	< -0.25
SPLESGSGLGSWVDSIPHTA	< -0.25
SPLFEGTGILVDFAGPATRL	< -0.25
SPLILFKHVLDWKSRW	< -0.25
SPLPGCLRNAPGNR	< -0.25
SPLRSVLIKIYNLLEPQRCA	< -0.25
SPLSGS	< -0.25
SPRGSETNCIPNIVVGGSRR	< -0.25
SPRSLVECNARYTRSGLDAS	< -0.25
SPRSPTLVR	< -0.25
SPS	< -0.25
SPSCLYEVLGLWVASSL	< -0.25
SPSESRL	< -0.25
SPSGT	< -0.25
SPSNGPHLILLSESPVEHAR	< -0.25
SPSP	< -0.25
SPSRTNGWFGPALRSIGLKL	< -0.25
SPTGG	< -0.25
SPTGTGSQTVLCRLARCPNV	< -0.25
SPTNL	< -0.25

Reformatted bar-delimited: entries from further up
Substance | growth estimate
SMHAAGAKRKRRCVMVFHGH | < -0.25
SMMRRTV | < -0.25
SMPVSGG | < -0.25
SMRRHALHDPPFARTGPRDT | < -0.25
SMRSYGLTAHS | < -0.25
SMSQDPVQSTELRAYHTTRH | < -0.25
SMTIVSLRVANRPTTLICAT | < -0.25
SMVTKGRGAGNPNSLSEVQP | < -0.25
SMYASLR | < -0.25
SMYCRPTGVVVAGLRQDLLV | < -0.25
SMYLHA | < -0.25
SMYQLTETLHSTA | < -0.25
SNGVPILYSAF | < -0.25
SNHFNLGPYWPC | < -0.25
SNHKRSLPQ | < -0.25
SNISDEVPHPLAIHNDYATT | < -0.25
